{
  "sequences": {"note": "By UniProt entry, the sequences of proteins in these tests, tags left out.", "UniProt E9Q557": "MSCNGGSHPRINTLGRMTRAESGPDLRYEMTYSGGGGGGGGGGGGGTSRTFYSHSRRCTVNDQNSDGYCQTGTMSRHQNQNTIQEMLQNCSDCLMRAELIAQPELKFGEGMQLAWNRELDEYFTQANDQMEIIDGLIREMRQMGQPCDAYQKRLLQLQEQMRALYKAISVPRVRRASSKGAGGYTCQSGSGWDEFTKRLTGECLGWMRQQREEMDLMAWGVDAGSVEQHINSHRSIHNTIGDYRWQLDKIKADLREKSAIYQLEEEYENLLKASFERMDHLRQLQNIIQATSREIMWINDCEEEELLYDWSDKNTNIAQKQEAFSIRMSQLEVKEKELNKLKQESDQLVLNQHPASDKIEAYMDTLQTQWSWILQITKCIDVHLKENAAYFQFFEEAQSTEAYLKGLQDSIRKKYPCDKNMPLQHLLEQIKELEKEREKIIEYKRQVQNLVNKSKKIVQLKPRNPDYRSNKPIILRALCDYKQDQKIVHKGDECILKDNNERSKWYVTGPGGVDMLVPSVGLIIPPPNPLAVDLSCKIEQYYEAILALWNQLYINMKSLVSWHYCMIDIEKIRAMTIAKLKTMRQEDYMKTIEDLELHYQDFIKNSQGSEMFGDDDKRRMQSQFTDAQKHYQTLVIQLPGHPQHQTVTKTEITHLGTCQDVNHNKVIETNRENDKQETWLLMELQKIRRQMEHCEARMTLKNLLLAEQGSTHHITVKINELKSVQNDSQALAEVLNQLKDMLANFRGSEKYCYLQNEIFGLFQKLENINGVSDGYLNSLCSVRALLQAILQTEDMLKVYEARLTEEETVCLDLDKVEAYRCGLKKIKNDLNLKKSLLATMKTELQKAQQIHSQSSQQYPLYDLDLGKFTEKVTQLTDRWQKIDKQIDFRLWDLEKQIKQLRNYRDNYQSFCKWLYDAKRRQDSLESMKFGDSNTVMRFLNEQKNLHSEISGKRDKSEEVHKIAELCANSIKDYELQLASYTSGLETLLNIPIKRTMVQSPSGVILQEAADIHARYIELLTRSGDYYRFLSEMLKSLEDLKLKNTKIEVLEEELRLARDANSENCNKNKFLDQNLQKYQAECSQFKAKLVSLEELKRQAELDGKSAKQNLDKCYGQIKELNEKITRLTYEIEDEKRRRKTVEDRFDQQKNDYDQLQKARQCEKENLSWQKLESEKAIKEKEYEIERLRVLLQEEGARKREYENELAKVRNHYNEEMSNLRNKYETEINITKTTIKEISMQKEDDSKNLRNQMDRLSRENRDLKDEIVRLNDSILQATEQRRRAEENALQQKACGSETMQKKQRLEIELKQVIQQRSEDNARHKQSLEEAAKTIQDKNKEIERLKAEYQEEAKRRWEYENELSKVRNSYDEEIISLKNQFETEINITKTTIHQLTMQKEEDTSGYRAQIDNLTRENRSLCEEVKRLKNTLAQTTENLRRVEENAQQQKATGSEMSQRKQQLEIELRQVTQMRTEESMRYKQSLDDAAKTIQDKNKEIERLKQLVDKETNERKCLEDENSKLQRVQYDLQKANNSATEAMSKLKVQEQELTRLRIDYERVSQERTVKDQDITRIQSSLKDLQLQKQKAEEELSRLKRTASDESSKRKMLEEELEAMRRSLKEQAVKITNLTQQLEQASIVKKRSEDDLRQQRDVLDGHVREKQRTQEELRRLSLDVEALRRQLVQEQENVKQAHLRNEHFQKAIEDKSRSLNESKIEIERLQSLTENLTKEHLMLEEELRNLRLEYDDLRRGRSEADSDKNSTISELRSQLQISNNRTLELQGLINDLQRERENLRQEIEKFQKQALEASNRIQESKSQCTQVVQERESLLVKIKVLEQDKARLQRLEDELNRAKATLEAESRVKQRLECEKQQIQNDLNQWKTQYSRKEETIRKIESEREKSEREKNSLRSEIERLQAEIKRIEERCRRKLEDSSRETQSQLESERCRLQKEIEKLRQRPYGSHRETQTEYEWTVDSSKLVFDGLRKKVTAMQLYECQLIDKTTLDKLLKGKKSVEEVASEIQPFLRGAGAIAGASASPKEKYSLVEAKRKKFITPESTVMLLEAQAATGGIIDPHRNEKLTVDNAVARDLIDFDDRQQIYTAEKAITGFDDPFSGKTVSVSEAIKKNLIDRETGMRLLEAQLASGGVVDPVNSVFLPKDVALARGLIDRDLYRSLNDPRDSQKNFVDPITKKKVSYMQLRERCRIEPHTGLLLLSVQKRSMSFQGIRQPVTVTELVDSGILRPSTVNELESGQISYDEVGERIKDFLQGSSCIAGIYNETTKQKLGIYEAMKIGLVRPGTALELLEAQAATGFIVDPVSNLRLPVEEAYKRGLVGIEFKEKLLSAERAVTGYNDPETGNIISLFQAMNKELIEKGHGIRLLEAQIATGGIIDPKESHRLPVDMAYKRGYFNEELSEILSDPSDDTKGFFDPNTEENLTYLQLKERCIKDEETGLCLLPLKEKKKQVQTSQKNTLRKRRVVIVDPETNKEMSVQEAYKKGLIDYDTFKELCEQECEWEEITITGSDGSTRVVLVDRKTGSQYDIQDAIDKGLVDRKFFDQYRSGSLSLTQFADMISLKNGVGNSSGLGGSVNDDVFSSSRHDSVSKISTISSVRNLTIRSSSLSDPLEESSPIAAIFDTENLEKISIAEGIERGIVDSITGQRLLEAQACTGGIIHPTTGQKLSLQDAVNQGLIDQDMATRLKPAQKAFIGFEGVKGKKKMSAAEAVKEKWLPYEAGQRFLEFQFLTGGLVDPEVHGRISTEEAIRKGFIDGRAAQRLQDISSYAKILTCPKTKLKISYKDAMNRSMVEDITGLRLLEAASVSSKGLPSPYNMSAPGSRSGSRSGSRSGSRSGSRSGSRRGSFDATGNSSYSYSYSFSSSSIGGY"},
  "source": "paper doi:10.1101/2022.04.27.489705",
  "binders": {"B1": {"name": "plakophilin 2 (protein, UniProt Q9CQ73 1-795)", "chain": "MAVPGSLAECGYIRTVLGQQILGHLDSSSLALPSEARLRLAGSSGRGDPAARSQRIQEQVQQTLARRGRSSAVSGNLHRTSSVPEYVYKLHVVENDFVGRQSPVTRDYDMLKAGMTATYGSRWGRAAAQYSSQKSVEERSWRQPLRRLEISPDSSPERAHYGHSEYQYAWRSHVVPGGRLTLPRYARSEILGLRQAGTARRPPGCGSFSDAVFDNGPLKPTMPTHPPGTSHSAGSLLEETTVRVSQARLQSTQSRTARSSWPRSSVRSSLREPGRMLTTAGQAAVGSGDAHGDRSVFADAQLGNADIEMTLERAVNMLDADHVPVSKISAAATFIQHESFQKSEARKRVNQLRGIPKLLQLLKLQNEDVQRAACGALRNLVFEDNDNKLEVAELNGVPRLLQVLKQTRDLETKKQITGLLWNLSSSDKLKHLMITEALLTLTESVIIPFSGWPEGDYPKANGLLDFDIFYNVTGCLRNMSSAGPDGRKMMRRCDGLIDSLVHYVRGTIADYQPDDKATENCVCILHNLSYQLEAELPEKYSQSIYMQNRNIQTNSNKSIGCFGSRSRKLKEQYQDLQMPEERSNPHGIEWLWHSIVIRMYLSLIAKSTRNYTQEASLGALQNLTAGGGPIPTLVARMVVQKENGLQHTRKMLHVGDPSVKKTAVSLLRNLSRNLSLQNEIAKETLPDLVSIIPDTVPSTDLLIETTASACYTLNNLMQNSYQNARDLLNTGGLQKIMTISIGEGYAPNKASKAASVLLYSLWAHTELHHAYKKAQFKKTDFVNSRTAKAYHSLKD"}, "B2": {"name": "desmoglein 2 (protein, UniProt O55111 55-1122)", "chain": "AWITAPVALREGEDLSRKNPIAKIHSDLAEEKGIKITYKYTGKGITEPPFGIFVFDRNTGELNITSILDREETPYFLLTGYALDSRGNNLEKPLELRIKVLDINDNEPVFTQEVFVGSIEELSAAHTLVMKITATDADDPETLNAKVSYRIVSQEPANSHMFYLNKDTGEIYTTSFTLDREEHSSYSLTVEARDGNGQITDKPVQQAQVQIRILDVNDNIPVVENKMYEGTVEENQVNVEVMRIKVTDADEVGSDNWLANFTFASGNEGGYFHIETDTQTNEGIVTLVKEVDYEEMKKLDLSIIVTNKAAFHKSILSKYKATPIPITVKVKNVVEGIHFKSSVVSFRASEAMDRSSLSRSIGNFQVFDEDTGQAAKVTYVKVQDTDNWVSVDSVTSEIKLVKIPDFESRYVQNGTYTAKVVAISKEHPQKTITGTIVITVEDVNDNCPVLVDSVRSVCEDEPYVNVTAEDLDGAQNSAPFSFSIIDQPPGTAQKWKITHQESTSVLLQQSERKRGRSEIPFLISDSQGFSCPERQVLQLTVCECLKGGGCVAAQYDNYVGLGPAAIALMILALLLLLLVPLLLLICHCGGGAKGFTPIPGTIEMLHPWNNEGAPPEDKVVPSLLVADHAESSAVRGGVGGAMLKEGMMKGSSSASVTKGQHELSEVDGRWEEHRSLLTAGATHHVRTAGTIAANEAVRTRATGSSRDMSGARGAVAVNEEFLRSYFTEKAASYNGEDDLHMAKDCLLVYSQEDTASLRGSVGCCSFIEGELDDLFLDDLGLKFKTLAEVCLGRKIDLDVDIEQRQKPVREASVSAASGSHYEQAVTSSESAYSSNTGFPAPKPLHEVHTEKVTQEIVTESSVSSRQSQKVVPPPDPVASGNIIVTETSYAKGSAVPPSTVLLAPRQPQSLIVTERVYAPTSTLVDQHYANEEKVLVTERVIQPNGGIPKPLEVTQHLKDAQYVMVRERESILAPSSGVQPTLAMPSVAAGGQNVTVTERILTPASTLQSSYQIPSETSITARNTVLSSVGSIGPLPNLDLEESDRPNSTITTSSTRVTKHSTMQHSYS"}},
  "key": {"[1]": {"target": "T1, desmoglein 2 (mouse (endogenous in HL-1)) (UniProt O55111)", "T1 sequence": "B2 chain", "test": "co-IP"}, "[2]": {"target": "desmoplakin (mouse (endogenous in HL-1)) (UniProt E9Q557)", "test": "co-IP"}},
  "note": "These are yes or no findings as the source states them, for the method shown. In cells and extracts the contact can be indirect. Some entries that bind do so weakly or less than the wild type.",
  "data": [
    {"binder": "B1", "values": [
      {"measurement": "binding", "setting": "[1]", "result": "binds"},
      {"measurement": "binding", "setting": "[2]", "result": "binds"}
    ]},
    {"binder": "B2", "values": [
      {"measurement": "binding", "setting": "[2]", "result": "binds"}
    ]}
  ]
}
